Experimental data published in ChEMBL document CHEMBL5674883, “The Heterochromatin Landscape in Migrating Cells and the Importance of H3K27me3 for Associated Transcriptome Alterations” (Cells, 2018).
Further values from the same series stand in other lists.

Amino acid sequences for entries named in this document (tags omitted).
UniProt Q61188, whole entry: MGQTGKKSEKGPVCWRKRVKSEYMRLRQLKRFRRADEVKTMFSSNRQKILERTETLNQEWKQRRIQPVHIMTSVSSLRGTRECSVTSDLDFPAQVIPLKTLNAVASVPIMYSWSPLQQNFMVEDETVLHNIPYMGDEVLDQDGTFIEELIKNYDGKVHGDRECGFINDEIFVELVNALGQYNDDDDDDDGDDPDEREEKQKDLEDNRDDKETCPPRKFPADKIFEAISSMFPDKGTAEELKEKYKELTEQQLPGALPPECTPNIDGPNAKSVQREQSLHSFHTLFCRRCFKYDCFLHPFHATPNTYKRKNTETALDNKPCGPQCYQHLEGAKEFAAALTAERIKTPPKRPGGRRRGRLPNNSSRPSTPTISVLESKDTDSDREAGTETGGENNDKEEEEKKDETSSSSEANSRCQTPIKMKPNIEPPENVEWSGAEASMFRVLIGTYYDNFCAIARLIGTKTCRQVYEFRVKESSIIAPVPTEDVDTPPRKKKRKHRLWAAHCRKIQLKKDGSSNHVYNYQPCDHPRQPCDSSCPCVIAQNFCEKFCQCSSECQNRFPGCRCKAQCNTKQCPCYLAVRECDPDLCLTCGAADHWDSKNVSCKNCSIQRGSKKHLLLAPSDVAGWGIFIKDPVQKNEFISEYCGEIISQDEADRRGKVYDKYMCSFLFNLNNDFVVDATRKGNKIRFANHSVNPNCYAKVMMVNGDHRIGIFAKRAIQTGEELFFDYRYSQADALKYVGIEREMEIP

Assays:
Format in all cases: cell-based
[1] = target: Histone-lysine N-methyltransferase EZH2 (Mus musculus) (UniProt Q61188); test: Inhibition of EZH2 in mouse B16-F1 migrating cells assessed as fold change in H3K27me3-buffered regulated Gas5-mRNA expression at 3 uM measured by ChIP-seq analysis relative to control cells
[2] = target: Histone-lysine N-methyltransferase EZH2 (Mus musculus) (UniProt Q61188); test: Inhibition of EZH2 in mouse B16-F1 migrating cells assessed as fold change in H3K27me3-independent regulated Bmt2-mRNA expression at 3 uM measured by ChIP-seq analysis relative to control cells
[3] = target: Histone-lysine N-methyltransferase EZH2 (Mus musculus) (UniProt Q61188); test: Inhibition of EZH2 in mouse B16-F1 migrating cells assessed as fold change in H3K27me3-buffered regulated Cntrl-mRNA expression at 3 uM measured by ChIP-seq analysis relative to control cells
[4] = target: Histone-lysine N-methyltransferase EZH2 (Mus musculus) (UniProt Q61188); test: Inhibition of EZH2 in mouse B16-F1 migrating cells assessed as fold change in H3K27me3-buffered regulated Gla-mRNA expression at 3 uM measured by ChIP-seq analysis relative to control cells
[5] = target: Histone-lysine N-methyltransferase EZH2 (Mus musculus) (UniProt Q61188); test: Inhibition of EZH2 in mouse B16-F1 migrating cells assessed as fold change in H3K27me3-independent regulated Kif20b-mRNA expression at 3 uM measured by ChIP-seq analysis relative to control cells
[6] = target: Histone-lysine N-methyltransferase EZH2 (Mus musculus) (UniProt Q61188); test: Inhibition of EZH2 in mouse B16-F1 migrating cells assessed as fold change in H3K27me3-buffered regulated Gab3-mRNA expression at 3 uM measured by ChIP-seq analysis relative to control cells
[7] = target: Histone-lysine N-methyltransferase EZH2 (Mus musculus) (UniProt Q61188); test: Inhibition of EZH2 in mouse B16-F1 migrating cells assessed as fold change in H3K27me3-buffered regulated Rab11fip4-mRNA expression at 3 uM measured by ChIP-seq analysis relative to control cells
[8] = target: Histone-lysine N-methyltransferase EZH2 (Mus musculus) (UniProt Q61188); test: Inhibition of EZH2 in mouse B16-F1 migrating cells assessed as fold change in H3K27me3-buffered regulated Kif11-mRNA expression at 3 uM measured by ChIP-seq analysis relative to control cells
[9] = target: Histone-lysine N-methyltransferase EZH2 (Mus musculus) (UniProt Q61188); test: Inhibition of EZH2 in mouse B16-F1 migrating cells assessed as fold change in H3K27me3-buffered regulated Kansl1l-mRNA expression at 3 uM measured by ChIP-seq analysis relative to control cells
[10] = target: T1, RNA polymerase II (Mus musculus) (UniProt P08775+Q8CFI7+P97760+A0A3Q4L2S8+Q80UW8+P61219+P62488+Q923G2+P60898+O08740+Q63871+P62876); test: Inhibition of RNA polymerase II in mouse B16-F1 migrating cells assessed as fold change in Ctdspl2-RNA stability at 0.1 mM measured by ChIP-seq analysis relative to control cells
[11] = target: T1, RNA polymerase II (Mus musculus); test: Inhibition of RNA polymerase II in mouse B16-F1 migrating cells assessed as fold change in Casc4-RNA stability at 0.1 mM measured by ChIP-seq analysis relative to control cells
[12] = target: T1, RNA polymerase II (Mus musculus); test: Inhibition of RNA polymerase II in mouse B16-F1 migrating cells assessed as fold change in Depdc1a-RNA stability at 0.1 mM measured by ChIP-seq analysis relative to control cells
[13] = target: T1, RNA polymerase II (Mus musculus); test: Inhibition of RNA polymerase II in mouse B16-F1 migrating cells assessed as fold change in Evi5-RNA stability at 0.1 mM measured by ChIP-seq analysis relative to control cells
[14] = target: T1, RNA polymerase II (Mus musculus); test: Inhibition of RNA polymerase II in mouse B16-F1 migrating cells assessed as fold change in Ly6g5b-RNA stability at 0.1 mM measured by ChIP-seq analysis relative to control cells
[15] = target: T1, RNA polymerase II (Mus musculus); test: Inhibition of RNA polymerase II in mouse B16-F1 migrating cells assessed as fold change in Elovl6-RNA stability at 0.1 mM measured by ChIP-seq analysis relative to control cells
[16] = target: T1, RNA polymerase II (Mus musculus); test: Inhibition of RNA polymerase II in mouse B16-F1 migrating cells assessed as fold change in Slc2a1-RNA stability at 0.1 mM measured by ChIP-seq analysis relative to control cells
[17] = target: T1, RNA polymerase II (Mus musculus); test: Inhibition of RNA polymerase II in mouse B16-F1 migrating cells assessed as fold change in Pigyl-RNA stability at 0.1 mM measured by ChIP-seq analysis relative to control cells
[18] = target: T1, RNA polymerase II (Mus musculus); test: Inhibition of RNA polymerase II in mouse B16-F1 migrating cells assessed as fold change in Plin2-RNA stability at 0.1 mM measured by ChIP-seq analysis relative to control cells
[19] = target: T1, RNA polymerase II (Mus musculus); test: Inhibition of RNA polymerase II in mouse B16-F1 migrating cells assessed as fold change in Pms1-RNA stability at 0.1 mM measured by ChIP-seq analysis relative to control cells
[20] = target: T1, RNA polymerase II (Mus musculus); test: Inhibition of RNA polymerase II in mouse B16-F1 migrating cells assessed as fold change in Tnnt1-RNA stability at 0.1 mM measured by ChIP-seq analysis relative to control cells
[21] = target: T1, RNA polymerase II (Mus musculus); test: Inhibition of RNA polymerase II in mouse B16-F1 migrating cells assessed as fold change in Ckb-RNA stability at 0.1 mM measured by ChIP-seq analysis relative to control cells
[22] = target: T1, RNA polymerase II (Mus musculus); test: Inhibition of RNA polymerase II in mouse B16-F1 migrating cells assessed as fold change in Psmf1-RNA stability at 0.1 mM measured by ChIP-seq analysis relative to control cells
[23] = target: T1, RNA polymerase II (Mus musculus); test: Inhibition of RNA polymerase II in mouse B16-F1 migrating cells assessed as fold change in Rpl28-RNA stability at 0.1 mM measured by ChIP-seq analysis relative to control cells
[24] = target: T1, RNA polymerase II (Mus musculus); test: Inhibition of RNA polymerase II in mouse B16-F1 migrating cells assessed as fold change in 1810058I24Rik-RNA stability at 0.1 mM measured by ChIP-seq analysis relative to control cells
[25] = target: T1, RNA polymerase II (Mus musculus); test: Inhibition of RNA polymerase II in mouse B16-F1 migrating cells assessed as fold change in Gabpa-RNA stability at 0.1 mM measured by ChIP-seq analysis relative to control cells
[26] = target: T1, RNA polymerase II (Mus musculus); test: Inhibition of RNA polymerase II in mouse B16-F1 migrating cells assessed as fold change in Ncl-RNA stability at 0.1 mM measured by ChIP-seq analysis relative to control cells
[27] = target: T1, RNA polymerase II (Mus musculus); test: Inhibition of RNA polymerase II in mouse B16-F1 migrating cells assessed as fold change in Phldb2-RNA stability at 0.1 mM measured by ChIP-seq analysis relative to control cells
[28] = target: T1, RNA polymerase II (Mus musculus); test: Inhibition of RNA polymerase II in mouse B16-F1 migrating cells assessed as fold change in Atp6v0d1-RNA stability at 0.1 mM measured by ChIP-seq analysis relative to control cells
[29] = target: T1, RNA polymerase II (Mus musculus); test: Inhibition of RNA polymerase II in mouse B16-F1 migrating cells assessed as fold change in Elob-RNA stability at 0.1 mM measured by ChIP-seq analysis relative to control cells
[30] = target: T1, RNA polymerase II (Mus musculus); test: Inhibition of RNA polymerase II in mouse B16-F1 migrating cells assessed as fold change in Fbxl3-RNA stability at 0.1 mM measured by ChIP-seq analysis relative to control cells

CCCc1cc(C)[nH]c(=O)c1CNC(=O)c1cc(-c2ccnc(N3CCN(C)CC3)c2)cc2c1cnn2C(C)C
log2FC [1]: -0.42
log2FC [2]: -0.69
log2FC [3]: -0.43
log2FC [4]: 0.42
log2FC [5]: -0.9
log2FC [6]: -0.85
log2FC [7]: -0.49
log2FC [8]: -0.43
log2FC [9]: -0.4

OC[C@H]1O[C@@H](n2cnc3cc(Cl)c(Cl)cc32)[C@H](O)[C@@H]1O
log2FC [10]: -0.54
log2FC [11]: -0.55
log2FC [12]: -1.2
log2FC [13]: -0.48
log2FC [14]: -0.87
log2FC [15]: -0.46
log2FC [16]: 0.68
log2FC [17]: 0.62
log2FC [18]: 0.49
log2FC [19]: -0.8
log2FC [20]: 0.87
log2FC [21]: 0.44
log2FC [22]: 0.38
log2FC [23]: 0.58
log2FC [24]: 0.57
log2FC [25]: -0.73
log2FC [26]: -0.71
log2FC [27]: -0.51
log2FC [28]: 0.62
log2FC [29]: 0.56
log2FC [30]: -1.06
